Paper doi:10.1101/2021.05.31.446447
These are yes or no findings as the source states them, for the method shown. In cells and extracts the contact can be indirect. Some results given as binding are weak or reduced against the parent protein; the word gives no strength. Where a sequence is shown, tags or fusion partners need not be part of it.

T1: CP190 protein (Drosophila melanogaster) (UniProt Q24478)
T1 sequence: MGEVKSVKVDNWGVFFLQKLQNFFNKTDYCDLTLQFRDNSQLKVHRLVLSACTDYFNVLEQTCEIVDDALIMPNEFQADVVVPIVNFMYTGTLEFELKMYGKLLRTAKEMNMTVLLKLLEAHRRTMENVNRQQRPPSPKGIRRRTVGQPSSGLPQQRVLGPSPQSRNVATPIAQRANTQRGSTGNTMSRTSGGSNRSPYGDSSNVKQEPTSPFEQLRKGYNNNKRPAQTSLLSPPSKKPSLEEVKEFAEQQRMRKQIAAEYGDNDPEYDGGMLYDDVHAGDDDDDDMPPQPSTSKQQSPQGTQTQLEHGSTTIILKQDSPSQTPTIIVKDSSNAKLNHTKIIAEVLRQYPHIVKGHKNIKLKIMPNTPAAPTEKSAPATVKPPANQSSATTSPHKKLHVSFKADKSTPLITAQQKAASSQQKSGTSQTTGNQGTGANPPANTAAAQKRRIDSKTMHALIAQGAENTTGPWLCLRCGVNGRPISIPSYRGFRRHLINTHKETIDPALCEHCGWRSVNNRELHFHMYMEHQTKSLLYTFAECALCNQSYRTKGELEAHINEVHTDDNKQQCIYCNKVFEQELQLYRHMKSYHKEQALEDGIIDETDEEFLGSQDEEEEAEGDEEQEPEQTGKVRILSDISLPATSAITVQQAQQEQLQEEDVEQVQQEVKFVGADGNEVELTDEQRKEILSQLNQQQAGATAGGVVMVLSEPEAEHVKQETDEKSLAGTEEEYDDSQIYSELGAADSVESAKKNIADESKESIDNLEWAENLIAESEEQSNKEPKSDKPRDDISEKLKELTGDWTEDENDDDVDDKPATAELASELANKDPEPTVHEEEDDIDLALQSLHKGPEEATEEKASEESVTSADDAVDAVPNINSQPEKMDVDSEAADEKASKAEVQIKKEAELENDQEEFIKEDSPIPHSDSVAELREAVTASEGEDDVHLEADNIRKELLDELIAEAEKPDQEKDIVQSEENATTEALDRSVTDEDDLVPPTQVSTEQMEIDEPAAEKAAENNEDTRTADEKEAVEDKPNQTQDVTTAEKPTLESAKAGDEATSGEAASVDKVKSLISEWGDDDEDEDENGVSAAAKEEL

B1: 3×HA-tagged dCTCF wild type (protein, UniProt Q9VS55 1-818)
chain: MPRRTKKDEDPEDLQTFLNNFHKEIEGNSDEKVVNTILEAISAEAIDLDENGAEAGGSKPMEEAEADLDHAEEAEEEEEDDEDKYFIDDEGNCYIKTTPKKQKELQKKLKQAAAKPGKATRSVVSTATNKSINLRPAKSTPKATTSKPPPEPKAISVRPARAAAAKAKQSAMPPPPALVVKVPAPRGRPRKNPVIPKPEPMDLERELEELVDEPDISSMVTELSDYTVDEAAVEAATATLTPNEAEVYEFEDNATTEDENADKKDVDFVLSNKEVKLKTASSTSQNSNASGHKYSCPHCPYTASKKFLITRHSRSHDVEPSFKCSICERSFRSNVGLQNHINTHMGNKPHKCKLCESAFTTSGELVRHTRYKHTKEKPHKCTECTYASVELTKLRRHMTCHTGERPYQCPHCTYASQDMFKLKRHMVIHTGEKKYQCDICKSRFTQSNSLKAHKLIHSVVDKPVFQCNYCPTTCGRKADLRVHIKHMHTSDVPMTCRRCGQQLPDRYQYKLHVKSHEGEKCYSCKLCSYASVTQRHLASHMLIHLDEKPFHCDQCPQAFRQRQLLRRHMNLVHNEEYQPPEPREKLHKCPSCPREFTHKGNLMRHMETHDDSANAREKRRRLKLGRNVRLQKDGTVITLIKDQYVDMDRDQEENEEDDNPESYDLAEIEPENSEAEDADDDVETIVSDPIRQRIKPAPIIINKQARLAASEKQPMIINQRLRSQRGTKTFHIKEEPDNSDFTVEWQGDDGEVMVVELVNGDEEVLVKHEPSANSKISAKNCFGFEDDDDYEEYGDGENEVDGASQEFLQLMDMIEQDS
B2: 3×HA-tagged dCTCF^Δ705–733 (protein, UniProt Q9VS55)
chain: MPRRTKKDEDPEDLQTFLNNFHKEIEGNSDEKVVNTILEAISAEAIDLDENGAEAGGSKPMEEAEADLDHAEEAEEEEEDDEDKYFIDDEGNCYIKTTPKKQKELQKKLKQAAAKPGKATRSVVSTATNKSINLRPAKSTPKATTSKPPPEPKAISVRPARAAAAKAKQSAMPPPPALVVKVPAPRGRPRKNPVIPKPEPMDLERELEELVDEPDISSMVTELSDYTVDEAAVEAATATLTPNEAEVYEFEDNATTEDENADKKDVDFVLSNKEVKLKTASSTSQNSNASGHKYSCPHCPYTASKKFLITRHSRSHDVEPSFKCSICERSFRSNVGLQNHINTHMGNKPHKCKLCESAFTTSGELVRHTRYKHTKEKPHKCTECTYASVELTKLRRHMTCHTGERPYQCPHCTYASQDMFKLKRHMVIHTGEKKYQCDICKSRFTQSNSLKAHKLIHSVVDKPVFQCNYCPTTCGRKADLRVHIKHMHTSDVPMTCRRCGQQLPDRYQYKLHVKSHEGEKCYSCKLCSYASVTQRHLASHMLIHLDEKPFHCDQCPQAFRQRQLLRRHMNLVHNEEYQPPEPREKLHKCPSCPREFTHKGNLMRHMETHDDSANAREKRRRLKLGRNVRLQKDGTVITLIKDQYVDMDRDQEENEEDDNPESYDLAEIEPENSEAEDADDDVETIVSDPIRQRIKPAPIIINKQEEPDNSDFTVEWQGDDGEVMVVELVNGDEEVLVKHEPSANSKISAKNCFGFEDDDDYEEYGDGENEVDGASQEFLQLMDMIEQDS

Biological target: T1, CP190 protein (Drosophila melanogaster)
Experiment: co-IP

Binder | binding
B1 | binds
B2 | no binding
